Test results as given in article PMC5648754, “CryoEM structure of Saccharomyces cerevisiae U1 snRNP offers insight into alternative splicing” (Nature Communications, 2017).
Results are given in words; binding and its absence hold for the method and conditions named. Some results given as binding are weak or reduced against the parent protein; the word gives no strength. Where a sequence is shown, tags or fusion partners need not be part of it.

Sequences of proteins named here, by UniProt entry; tags and fusion partners are left off. A change or cut given only in a name is not applied to a line headed by its entry. Residues count along the entry.
UniProt P09234, residues 1-61: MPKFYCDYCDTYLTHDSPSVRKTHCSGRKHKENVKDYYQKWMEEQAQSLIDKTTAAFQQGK

T1: yeast Snu71 (S. cerevisiae), P53207
T1 chain: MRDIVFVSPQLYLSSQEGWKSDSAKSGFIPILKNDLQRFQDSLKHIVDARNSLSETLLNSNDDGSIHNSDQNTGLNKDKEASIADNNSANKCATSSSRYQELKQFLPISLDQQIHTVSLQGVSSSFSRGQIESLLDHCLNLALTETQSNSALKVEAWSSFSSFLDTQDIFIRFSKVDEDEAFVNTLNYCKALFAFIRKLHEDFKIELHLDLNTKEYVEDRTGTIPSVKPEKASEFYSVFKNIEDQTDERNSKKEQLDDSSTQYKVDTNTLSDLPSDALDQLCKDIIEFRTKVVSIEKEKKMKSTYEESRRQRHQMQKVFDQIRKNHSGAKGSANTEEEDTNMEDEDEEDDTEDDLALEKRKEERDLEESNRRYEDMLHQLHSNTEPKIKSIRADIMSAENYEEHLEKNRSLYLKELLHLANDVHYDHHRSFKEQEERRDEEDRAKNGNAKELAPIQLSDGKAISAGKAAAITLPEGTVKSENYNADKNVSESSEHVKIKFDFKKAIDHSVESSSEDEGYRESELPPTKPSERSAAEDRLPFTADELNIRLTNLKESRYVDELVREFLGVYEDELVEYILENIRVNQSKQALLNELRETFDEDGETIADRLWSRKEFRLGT

T2: yeast Prp40 with 2x ProtA tag, co-expressed from plasmid (S. cerevisiae) (UniProt P33203)
T2 sequence: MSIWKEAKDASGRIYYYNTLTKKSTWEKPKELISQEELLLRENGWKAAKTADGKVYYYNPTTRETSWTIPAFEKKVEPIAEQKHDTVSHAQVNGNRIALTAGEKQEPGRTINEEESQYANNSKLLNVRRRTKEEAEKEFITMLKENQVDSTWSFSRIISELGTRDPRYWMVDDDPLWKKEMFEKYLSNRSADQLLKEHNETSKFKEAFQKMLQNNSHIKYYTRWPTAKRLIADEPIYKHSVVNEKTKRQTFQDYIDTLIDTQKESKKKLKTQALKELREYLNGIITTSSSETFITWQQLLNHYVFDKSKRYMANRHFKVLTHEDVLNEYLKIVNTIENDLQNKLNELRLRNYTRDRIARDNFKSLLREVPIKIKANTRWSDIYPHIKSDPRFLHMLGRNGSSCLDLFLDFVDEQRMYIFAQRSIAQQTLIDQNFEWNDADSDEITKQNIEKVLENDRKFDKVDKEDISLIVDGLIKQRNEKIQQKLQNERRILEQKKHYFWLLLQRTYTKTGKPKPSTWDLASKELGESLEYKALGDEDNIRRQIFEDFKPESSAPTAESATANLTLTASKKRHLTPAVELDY

B1: yeast Luc7, Q07508 1-261 (protein)
chain: MSTMSTPAAEQRKLVEQLMGRDFSFRHNRYSHQKRDLGLHDPKICKSYLVGECPYDLFQGTKQSLGKCPQMHLTKHKIQYEREVKQGKTFPEFEREYLAILSRFVNECNGQISVALQNLKHTAEERMKIQQVTEELDVLDVRIGLMGQEIDSLIRADEVSMGMLQSVKLQELISKRKEVAKRVRNITENVGQSAQQKLQVCEVCGAYLSRLDTDRRLADHFLGKIHLGYVKMREDYDRLMKNNRTTNASKTATTLPGRRFV
B2: yeast Snu71, co-expressed from plasmid (protein, UniProt P53207 1-620)
chain: MRDIVFVSPQLYLSSQEGWKSDSAKSGFIPILKNDLQRFQDSLKHIVDARNSLSETLLNSNDDGSIHNSDQNTGLNKDKEASIADNNSANKCATSSSRYQELKQFLPISLDQQIHTVSLQGVSSSFSRGQIESLLDHCLNLALTETQSNSALKVEAWSSFSSFLDTQDIFIRFSKVDEDEAFVNTLNYCKALFAFIRKLHEDFKIELHLDLNTKEYVEDRTGTIPSVKPEKASEFYSVFKNIEDQTDERNSKKEQLDDSSTQYKVDTNTLSDLPSDALDQLCKDIIEFRTKVVSIEKEKKMKSTYEESRRQRHQMQKVFDQIRKNHSGAKGSANTEEEDTNMEDEDEEDDTEDDLALEKRKEERDLEESNRRYEDMLHQLHSNTEPKIKSIRADIMSAENYEEHLEKNRSLYLKELLHLANDVHYDHHRSFKEQEERRDEEDRAKNGNAKELAPIQLSDGKAISAGKAAAITLPEGTVKSENYNADKNVSESSEHVKIKFDFKKAIDHSVESSSEDEGYRESELPPTKPSERSAAEDRLPFTADELNIRLTNLKESRYVDELVREFLGVYEDELVEYILENIRVNQSKQALLNELRETFDEDGETIADRLWSRKEFRLGT
B3: yeast Luc7, co-expressed from plasmid (protein, UniProt Q07508 1-261)
chain: MSTMSTPAAEQRKLVEQLMGRDFSFRHNRYSHQKRDLGLHDPKICKSYLVGECPYDLFQGTKQSLGKCPQMHLTKHKIQYEREVKQGKTFPEFEREYLAILSRFVNECNGQISVALQNLKHTAEERMKIQQVTEELDVLDVRIGLMGQEIDSLIRADEVSMGMLQSVKLQELISKRKEVAKRVRNITENVGQSAQQKLQVCEVCGAYLSRLDTDRRLADHFLGKIHLGYVKMREDYDRLMKNNRTTNASKTATTLPGRRFV
B4: human PrpF39, Flag-tagged (second copy HA-tagged in the co-IP) (natural protein, UniProt Q86UA1 1-669, looked up)
chain: MQNSHMDEYRNSSNGSTGNSSEVVVEHPTDFSTEIMNVTEMEQSPDDSPNVNASTEETEMASAVDLPVTLTETEANFPPEYEKFWKTVENNPQDFTGWVYLLQYVEQENHLMAARKAFDRFFIHYPYCYGYWKKYADLEKRHDNIKPSDEVYRRGLQAIPLSVDLWIHYINFLKETLDPGDPETNNTIRGTFEHAVLAAGTDFRSDRLWEMYINWENEQGNLREVTAIYDRILGIPTQLYSHHFQRFKEHVQNNLPRDLLTGEQFIQLRRELASVNGHSGDDGPPGDDLPSGIEDITDPAKLITEIENMRHRIIEIHQEMFNYNEHEVSKRWTFEEGIKRPYFHVKPLEKAQLKNWKEYLEFEIENGTHERVVVLFERCVISCALYEEFWIKYAKYMENHSIEGVRHVFSRACTIHLPKKPMVHMLWAAFEEQQGNINEARNILKTFEECVLGLAMVRLRRVSLERRHGNLEEAEHLLQDAIKNAKSNNESSFYAVKLARHLFKIQKNLPKSRKVLLEAIERDKENTKLYLNLLEMEYSGDLKQNEENILNCFDKAVHGSLPIKMRITFSQRKVEFLEDFGSDVNKLLNAYDEHQTLLKEQDSLKRKAENGSEEPEEKKAHTEDTTSSSTQMIDGDLQANQAVYNYSAWYQYNYQNPWNYGQYYPPPPT
notes: human PrpF39; In the co-IP two differently tagged copies (Flag-PrpF39 and HA-PrpF39) were co-transfected; The purified protein carries the Flag tag; also called Flag-PrpF39; HA-PrpF39; source: HEK293FT, transfected (pEF-Bos-Flag-PrpF39 and/or pEF-Bos-HA-PrpF39), in lysate; also purified (anti-Flag M2 agarose, 3x Flag peptide elution, Superose 6 gel filtration)

Legend:
[1] = biological target: T1, yeast Snu71 (S. cerevisiae), P53207; assay: cross-linking; purified yeast U1 snRNP cross-linked with 100 uM BS3, 30 min, room temperature; trypsin digest, mass spectrometry; both purified; conditions: remark: other sources report otherwise
[2] = biological target: T2, yeast Prp40 with 2x ProtA tag, co-expressed from plasmid (S. cerevisiae); assay: co-purification of co-expressed proteins; Prp40 + Snu71 or Prp40 + Snu71 + Luc7 co-expressed in yeast BCY123; purified by the 2x ProtA tag on Prp40 on IgG Sepharose, released by TEV, Superose 6 gel filtration
[3] = biological target: human U1C-NTD (residues 1-61), His-tagged (human) (UniProt P09234); assay: pull-down; His-tagged human U1C FL or NTD on nickel resin (5 ul) incubated with 1.5 ug purified Flag-PrpF39; 50 mM Hepes pH 6.9, 50 mM NaCl, 4 °C, 2 h; anti-Flag western blot; both purified

Binder | binding [2] | further results
B1 | – | binding [1]: binds
B2 | binds | –
B3 | binds | –
B4 | – | binding [3]: no binding (tested: 1.5 μg purified Flag-PrpF39)
